Source: article doi:10.1101/755819
Results are given in words; binding and its absence hold for the method and conditions named. Binding seen in cells or lysates may run through a third protein. Some binding calls cover weakened binding; strength is not graded here.

Protein sequences, listed by entry. Tags and fused reporters are not part of them.
UniProt Q61327: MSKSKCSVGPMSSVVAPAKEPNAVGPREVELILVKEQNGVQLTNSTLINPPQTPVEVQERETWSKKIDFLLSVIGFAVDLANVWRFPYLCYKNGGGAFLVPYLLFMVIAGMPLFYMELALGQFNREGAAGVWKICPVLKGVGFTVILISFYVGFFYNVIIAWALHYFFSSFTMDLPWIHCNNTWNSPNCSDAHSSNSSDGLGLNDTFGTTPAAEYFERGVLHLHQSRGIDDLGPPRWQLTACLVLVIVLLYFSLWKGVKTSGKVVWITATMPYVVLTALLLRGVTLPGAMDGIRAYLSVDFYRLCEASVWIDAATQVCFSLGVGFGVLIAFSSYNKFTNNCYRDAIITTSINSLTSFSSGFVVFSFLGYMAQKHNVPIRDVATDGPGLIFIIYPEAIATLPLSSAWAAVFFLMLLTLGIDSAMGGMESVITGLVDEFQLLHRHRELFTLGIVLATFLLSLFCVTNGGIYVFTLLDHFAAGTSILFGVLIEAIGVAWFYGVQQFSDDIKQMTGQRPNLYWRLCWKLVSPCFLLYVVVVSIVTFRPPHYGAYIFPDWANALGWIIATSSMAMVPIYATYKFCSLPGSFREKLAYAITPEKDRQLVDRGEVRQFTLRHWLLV

T1: Flotillin-1/Reggie-2 (mouse (endogenous in striatum)) (UniProt O08917)
T1 sequence: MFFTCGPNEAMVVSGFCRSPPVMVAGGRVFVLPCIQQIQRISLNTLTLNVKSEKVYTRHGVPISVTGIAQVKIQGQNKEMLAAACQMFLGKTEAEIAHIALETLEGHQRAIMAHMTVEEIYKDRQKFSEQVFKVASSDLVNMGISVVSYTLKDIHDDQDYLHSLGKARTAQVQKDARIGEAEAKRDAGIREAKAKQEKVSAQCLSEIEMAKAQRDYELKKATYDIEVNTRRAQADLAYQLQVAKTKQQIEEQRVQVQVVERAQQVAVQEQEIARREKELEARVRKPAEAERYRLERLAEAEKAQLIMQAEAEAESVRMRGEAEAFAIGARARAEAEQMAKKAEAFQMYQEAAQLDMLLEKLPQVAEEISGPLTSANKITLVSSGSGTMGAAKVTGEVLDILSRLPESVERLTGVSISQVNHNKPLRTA

B1: Flotillin-1/Reggie-2 (protein, UniProt O08917 1-428)
chain: MFFTCGPNEAMVVSGFCRSPPVMVAGGRVFVLPCIQQIQRISLNTLTLNVKSEKVYTRHGVPISVTGIAQVKIQGQNKEMLAAACQMFLGKTEAEIAHIALETLEGHQRAIMAHMTVEEIYKDRQKFSEQVFKVASSDLVNMGISVVSYTLKDIHDDQDYLHSLGKARTAQVQKDARIGEAEAKRDAGIREAKAKQEKVSAQCLSEIEMAKAQRDYELKKATYDIEVNTRRAQADLAYQLQVAKTKQQIEEQRVQVQVVERAQQVAVQEQEIARREKELEARVRKPAEAERYRLERLAEAEKAQLIMQAEAEAESVRMRGEAEAFAIGARARAEAEQMAKKAEAFQMYQEAAQLDMLLEKLPQVAEEISGPLTSANKITLVSSGSGTMGAAKVTGEVLDILSRLPESVERLTGVSISQVNHNKPLRTA
B2: Flot2 (protein, UniProt Q60634 1-428)
chain: MGNCHTVGPNEALVVSGGCCGSDYKQYVFGGWAWAWWCISDTQRISLEIMTLQPRCEDVETAEGVALTVTGVAQVKIMTEKELLAVACEQFLGKNVQDIKNVVLQTLEGHLRSILGTLTVEQIYQDRDQFAKLVREVAAPDVGRMGIEILSFTIKDVYDKVDYLSSLGKTQTAVVQRDADIGVAEAERDAGIREAECKKEMLDVKFMADTKIADSKRAFELQKSAFSEEVNIKTAEAQLAYELQGAREQQKIRQEEIEIEVVQRKKQIAVEAQEILRTDKELIATVRRPAEAEAHRIQQIAEGEKVKQVLLAQAEAEKIRKIGEAEAAVIEAMGKAEAERMKLKAEAYQKYGDAAKMALVLEALPQIAAKISAPLTKVDEIVVLSGDNSKVTSEVNRLLAELPASVHALTGVDLSKIPLIKNATGAQV

Tests used:
[1] = molecular target: dopamine transporter (mouse (endogenous in striatum)) (UniProt Q61327); assay: co-IP
[2] = molecular target: T1, Flotillin-1/Reggie-2 (mouse (endogenous in striatum)); assay: co-IP

Binder | binding [1] | binding [2]
B1 | binds | 
B2 | binds | binds
